The assay has as its target GFP-RalGAPα1. The assay can be described thus: affinity purification with mass spectrometry; GFP-RalGAPα1 expressed with HA-RalGAPβ in HEK293 cells; immunoprecipitation with GFP-Trap beads (GFP-binder); SDS-PAGE, in-gel trypsin digestion, LC-MS/MS; empty vectors as control.

No constants are given. Whether binding was seen depends on the method and setting. Binding seen in cells or lysates may run through a third protein. These calls come from enrichment with a bait or labelling near it, and not all partners need be listed. Sequences can lack the tags named with a protein.

B1: HA-RalGAPβ (protein, UniProt Q86X10 1-1494)
chain: MYSEWRSLHLVIQNDQGHTSVLHSYPESVGREVANAVVRPLGQVLGTPSVAGSENLLKTDKEVKWTMEVICYGLTLPLDGETVKYCVDVYTDWIMALVLPKDSIPLPVIKEPNQYVQTILKHLQNLFVPRQEQGSSQIRLCLQVLRAIQKLARESSLMARETWEVLLLFLLQINDILLAPPTVQGGIAENLAEKLIGVLFEVWLLACTRCFPTPPYWKTAKEMVANWRHHPAVVEQWSKVICALTSRLLRFTYGPSFPAFKVPDEDASLIPPEMDNECVAQTWFRFLHMLSNPVDLSNPAIISSTPKFQEQFLNVSGMPQELNQYPCLKHLPQIFFRAMRGISCLVDAFLGISRPRSDSAPPTPVNRLSMPQSAAVSTTPPHNRRHRAVTVNKATMKTSTVSTAHASKVQHQTSSTSPLSSPNQTSSEPRPLPAPRRPKVNSILNLFGSWLFDAAFVHCKLHNGINRDSSMTAITTQASMEFRRKGSQMSTDTMVSNPMFDASEFPDNYEAGRAEACGTLCRIFCSKKTGEEILPAYLSRFYMLLIQGLQINDYVCHPVLASVILNSPPLFCCDLKGIDVVVPYFISALETILPDRELSKFKSYVNPTELRRSSINILLSLLPLPHHFGTVKSEVVLEGKFSNDDSSSYDKPITFLSLKLRLVNILIGALQTETDPNNTQMILGAMLNIVQDSALLEAIGCQMEMGGGENNLKSHSRTNSGISSASGGSTEPTTPDSERPAQALLRDYALNTDSAAGLLIRSIHLVTQRLNSQWRQDMSISLAALELLSGLAKVKVMVDSGDRKRAISSVCTYIVYQCSRPAPLHSRDLHSMIVAAFQCLCVWLTEHPDMLDEKDCLKEVLEIVELGISGSKSKNNEQEVKYKGDKEPNPASMRVKDAAEATLTCIMQLLGAFPSPSGPASPCSLVNETTLIKYSRLPTINKHSFRYFVLDNSVILAMLEQPLGNEQNDFFPSVTVLVRGMSGRLAWAQQLCLLPRGAKANQKLFVPEPRPVPKNDVGFKYSVKHRPFPEEVDKIPFVKADLSIPDLHEIVTEELEERHEKLRSGMAQQIAYEIHLEQQSEEELQKRSFPDPVTDCKPPPPAQEFQTARLFLSHFGFLSLEALKEPANSRLPPHLIALDSTIPGFFDDIGYLDLLPCRPFDTVFIFYMKPGQKTNQEILKNVESSRTVQPHFLEFLLSLGWSVDVGRHPGWTGHVSTSWSINCCDDGEGSQQEVISSEDIGASIFNGQKKVLYYADALTEIAFVVPSPVESLTDSLESNISDQDSDSNMDLMPGILKQPSLTLELFPNHTDNLNSSQRLSPSSRMRKLPQGRPVPPLGPETRVSVVWVERYDDIENFPLSELMTEISTGVETTANSSTSLRSTTLEKEVPVIFIHPLNTGLFRIKIQGATGKFNMVIPLVDGMIVSRRALGFLVRQTVINICRRKRLESDSYSPPHVRRKQKITDIVNKYRNKQLEPEFYTSLFQEVGLKNCSS
Regarding B1, the binding entry is listed as “binds”.

The record behind these values is PMC9314365.
